At least one compound was matched to its structure with a doubt left.
Test system: Rat-2 fibroblasts transformed by oncogenic H-ras
Test: In vivo, Rat-2 fibroblasts transformed by oncogenic H-ras, 11 days i.p.
Conditions: Dose 100 mg/kg, day 11, rats

Cc1ccc(S(=O)(=O)C2(CCCC#Cc3ccc(Cl)cc3)SC(=O)NC2=O)cc1 (stereo not shown) [Example 103, 5-[5-(4-Chlorophenyl)pent-4-ynyl]-5-(p-tolylsulfonyl)-thiazolidine-2,4-dione]
% T/C: No efficacy at this

Reference: patent US6784184B2, “5-(arylsulfonyl)-,5-(arylsulfinyl), and 5-(arylsulfanyl)-thiazolidine-2,4-diones useful for inhibition of farnesyl-protein transferase” (Wyeth Holdings Corporation, priority 2001, dated 2004)
